These are yes or no findings as the source states them, for the method shown.
How the values were obtained:
recombinant MAGEA4 [1] = target: recombinant MAGEA4 (UniProt P43358); experiment: Western blot; recombinant MAGEA4 in lane B, human antibody as probe
recombinant MAGEA4 [2] = target: recombinant MAGEA4 (UniProt P43358); experiment: Western blot on recombinant protein

Protein sequences, listed by entry. Tags and fused reporters are not part of them.
UniProt P43358: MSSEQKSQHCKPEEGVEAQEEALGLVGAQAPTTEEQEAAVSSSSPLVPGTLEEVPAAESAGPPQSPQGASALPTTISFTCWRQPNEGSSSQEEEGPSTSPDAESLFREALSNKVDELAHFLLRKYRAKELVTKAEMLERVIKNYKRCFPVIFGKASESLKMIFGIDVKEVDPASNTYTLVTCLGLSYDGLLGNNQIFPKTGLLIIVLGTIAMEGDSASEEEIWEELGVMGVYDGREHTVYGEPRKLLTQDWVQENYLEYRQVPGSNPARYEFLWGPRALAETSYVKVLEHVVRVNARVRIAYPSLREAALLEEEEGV

B1: 20C10 (antibody, V domains shown)
VH: QLQLQESGPGLVKPSETLSLTCTVSGDSISASTDSWGWIRQSPGKGLEWIGVTSYSGRPYYNPSLKRRVTISVDTSKNHFSLKLTSVTAADRALYYCARRPSLIWAFDIWGQGTMVTVSS
VL: QSALTQPASVSGSPEQSITISCTGTSSAVGNYNLVSWYQHHPGKAPLLIIYDVNERPSGVSHRFSGSRSGNTASLTISGLLAEDEADYFCCSYGGTSSLHYVFGTGTRVTVL
binding (recombinant MAGEA4 [1]): no binding
binding (recombinant MAGEA4 [2]): no binding

From US20140093514A1
